No constants are given. Whether binding was seen depends on the method and setting. Binding can be weak; no strength is given.
Assays:
[1] = molecular target: GST-DCB-HUS domain of GBF1 (UniProt Q92538); assay: pull-down; GST-pulldowns of purified rhodopsin with GST-fused GBF1 domains, with or without recombinant Arf4; both purified
[2] = molecular target: GST-Sec7-HDS1 domain of GBF1 (UniProt Q92538); assay: pull-down; GST-pulldowns with GST-fused GBF1 domains; recombinant Arf4 pre-loaded with GDPbS, with purified rhodopsin; both purified
[3] = molecular target: GST-DCB-HUS domain of GBF1 (UniProt Q92538); assay: pull-down; GST-pulldowns with GST-fused GBF1 domains; recombinant Arf4 pre-loaded with GTPgS, with purified rhodopsin; both purified

Protein sequences, listed by entry. Tags and fused reporters are not part of them. Lines headed by an entry give the natural chain unless they say otherwise; changes in a name come on top.
UniProt Q92538: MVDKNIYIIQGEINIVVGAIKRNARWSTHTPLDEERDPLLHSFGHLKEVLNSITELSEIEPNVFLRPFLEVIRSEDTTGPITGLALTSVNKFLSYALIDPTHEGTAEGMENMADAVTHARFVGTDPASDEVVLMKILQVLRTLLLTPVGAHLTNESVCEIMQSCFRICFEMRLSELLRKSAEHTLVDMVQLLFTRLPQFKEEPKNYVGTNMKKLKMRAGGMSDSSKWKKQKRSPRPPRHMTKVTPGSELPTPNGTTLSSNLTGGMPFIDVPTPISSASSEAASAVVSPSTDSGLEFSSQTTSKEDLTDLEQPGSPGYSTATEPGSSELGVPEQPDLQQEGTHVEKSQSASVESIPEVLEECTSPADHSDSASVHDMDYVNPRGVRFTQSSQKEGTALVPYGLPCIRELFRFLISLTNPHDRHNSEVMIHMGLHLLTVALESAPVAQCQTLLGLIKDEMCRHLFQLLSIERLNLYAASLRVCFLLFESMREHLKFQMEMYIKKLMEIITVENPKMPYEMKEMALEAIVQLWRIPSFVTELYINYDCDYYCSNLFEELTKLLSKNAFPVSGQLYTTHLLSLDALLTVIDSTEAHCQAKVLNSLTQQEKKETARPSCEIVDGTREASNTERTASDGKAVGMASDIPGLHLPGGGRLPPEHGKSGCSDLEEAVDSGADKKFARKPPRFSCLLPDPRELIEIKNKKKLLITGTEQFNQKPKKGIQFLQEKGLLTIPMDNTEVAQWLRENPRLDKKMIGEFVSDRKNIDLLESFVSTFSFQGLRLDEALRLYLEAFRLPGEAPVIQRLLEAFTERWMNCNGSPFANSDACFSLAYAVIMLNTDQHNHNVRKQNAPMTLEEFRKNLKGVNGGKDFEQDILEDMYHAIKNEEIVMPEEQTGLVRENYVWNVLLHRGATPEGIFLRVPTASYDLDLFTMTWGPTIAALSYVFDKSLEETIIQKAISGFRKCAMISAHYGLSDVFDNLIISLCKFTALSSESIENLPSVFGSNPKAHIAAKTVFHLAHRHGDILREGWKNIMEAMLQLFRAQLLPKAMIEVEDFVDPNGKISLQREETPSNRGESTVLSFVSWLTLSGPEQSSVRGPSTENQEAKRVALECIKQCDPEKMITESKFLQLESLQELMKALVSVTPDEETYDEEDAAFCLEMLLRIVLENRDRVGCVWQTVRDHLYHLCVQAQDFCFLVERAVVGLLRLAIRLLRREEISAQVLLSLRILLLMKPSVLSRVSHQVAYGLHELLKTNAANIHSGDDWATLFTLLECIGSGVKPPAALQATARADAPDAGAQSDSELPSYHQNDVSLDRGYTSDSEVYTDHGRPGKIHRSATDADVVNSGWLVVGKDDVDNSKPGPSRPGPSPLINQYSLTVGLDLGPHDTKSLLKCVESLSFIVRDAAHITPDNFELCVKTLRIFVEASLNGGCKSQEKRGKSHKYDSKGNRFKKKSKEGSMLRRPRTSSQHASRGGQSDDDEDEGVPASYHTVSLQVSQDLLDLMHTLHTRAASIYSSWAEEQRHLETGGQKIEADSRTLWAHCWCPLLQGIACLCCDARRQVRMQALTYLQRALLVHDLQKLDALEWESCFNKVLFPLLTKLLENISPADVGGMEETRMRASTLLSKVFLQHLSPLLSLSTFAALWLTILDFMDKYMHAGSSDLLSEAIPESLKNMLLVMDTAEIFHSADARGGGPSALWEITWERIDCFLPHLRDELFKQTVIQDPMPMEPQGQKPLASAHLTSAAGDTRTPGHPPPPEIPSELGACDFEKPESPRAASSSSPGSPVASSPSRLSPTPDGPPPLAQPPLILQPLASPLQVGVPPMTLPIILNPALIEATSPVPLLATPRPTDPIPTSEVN
UniProt P02699: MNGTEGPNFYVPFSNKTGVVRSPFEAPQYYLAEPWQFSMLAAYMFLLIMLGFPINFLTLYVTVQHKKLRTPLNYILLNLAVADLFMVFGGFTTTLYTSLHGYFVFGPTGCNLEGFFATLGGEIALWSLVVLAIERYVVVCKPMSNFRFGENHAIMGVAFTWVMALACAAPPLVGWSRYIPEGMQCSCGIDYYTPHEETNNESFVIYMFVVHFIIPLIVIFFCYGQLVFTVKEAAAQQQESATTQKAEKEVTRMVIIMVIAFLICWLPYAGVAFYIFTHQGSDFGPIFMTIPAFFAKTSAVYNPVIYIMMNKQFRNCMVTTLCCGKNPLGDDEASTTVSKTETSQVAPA
UniProt P18085: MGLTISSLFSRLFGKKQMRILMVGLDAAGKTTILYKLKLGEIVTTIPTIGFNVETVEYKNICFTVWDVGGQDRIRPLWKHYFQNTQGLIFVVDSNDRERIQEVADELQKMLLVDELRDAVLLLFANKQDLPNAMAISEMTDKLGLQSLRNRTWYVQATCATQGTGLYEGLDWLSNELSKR

Row | binding [1] | binding [2] | binding [3] | Substance
1 | binds |  |  | purified rhodopsin (from UniProt P02699 1-348) (receptor)
2 |  | binds | binds | recombinant Arf4 (from UniProt P18085 1-180)

— PMC4519070
